In publication PMC11377751 one finds binding data, which are given here for 2 substances.

Sequences of proteins named here, by UniProt entry; tags and fusion partners are left off.
UniProt Q86X60: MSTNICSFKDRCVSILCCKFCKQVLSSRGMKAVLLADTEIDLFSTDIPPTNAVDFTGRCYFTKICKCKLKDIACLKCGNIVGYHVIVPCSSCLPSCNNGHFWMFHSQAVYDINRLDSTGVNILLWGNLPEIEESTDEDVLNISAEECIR
UniProt P27694: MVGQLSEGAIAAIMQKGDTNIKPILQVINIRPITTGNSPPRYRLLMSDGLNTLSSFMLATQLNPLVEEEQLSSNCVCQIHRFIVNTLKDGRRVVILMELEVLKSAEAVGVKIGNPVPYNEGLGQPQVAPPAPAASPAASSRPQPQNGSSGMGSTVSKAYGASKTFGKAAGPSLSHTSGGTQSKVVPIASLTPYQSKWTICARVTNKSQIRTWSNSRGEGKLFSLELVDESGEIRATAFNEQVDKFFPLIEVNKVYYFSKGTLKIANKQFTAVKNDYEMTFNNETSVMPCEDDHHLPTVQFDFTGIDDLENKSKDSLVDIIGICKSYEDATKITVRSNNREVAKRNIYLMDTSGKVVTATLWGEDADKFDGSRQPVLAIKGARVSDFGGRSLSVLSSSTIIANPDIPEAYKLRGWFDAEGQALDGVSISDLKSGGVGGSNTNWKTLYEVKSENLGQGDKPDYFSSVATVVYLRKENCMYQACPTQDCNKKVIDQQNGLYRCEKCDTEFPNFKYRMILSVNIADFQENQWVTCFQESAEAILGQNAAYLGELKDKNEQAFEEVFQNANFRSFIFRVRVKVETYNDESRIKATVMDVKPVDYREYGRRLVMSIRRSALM
UniProt P15927: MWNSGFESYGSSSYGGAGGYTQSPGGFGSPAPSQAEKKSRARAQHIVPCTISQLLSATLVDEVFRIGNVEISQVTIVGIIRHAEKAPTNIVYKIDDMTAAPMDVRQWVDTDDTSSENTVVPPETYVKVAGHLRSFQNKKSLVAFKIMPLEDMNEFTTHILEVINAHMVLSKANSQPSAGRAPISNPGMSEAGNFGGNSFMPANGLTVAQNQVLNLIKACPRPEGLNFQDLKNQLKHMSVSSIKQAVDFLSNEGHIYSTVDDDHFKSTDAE

Results are given in words; binding and its absence hold for the method and conditions named. Binding seen in cells or lysates may run through a third protein. A yes stands for co-enrichment or nearness to the bait. Other partners may have been found.

The target in the test is FLAG-FAM72B (human) (UniProt Q86X60). The test is described as follows: affinity purification with mass spectrometry; FLAG affinity purification from extracts of cells expressing FLAG-FAM72B; immunocomplexes eluted with FLAG peptide; two replicas with a control pulldown each.

For RPA1 (from UniProt P27694 1-616), the binding result was “binds”.

On to RPA2 (from UniProt P15927 1-270), for which the binding entry is given as “binds”.
